These results are taken from paper PMC5996148.

The chains behind the UniProt entries cited, without tags or fusion partners. Where a name states a change or a piece, a line headed by the entry shows the natural chain unless it says otherwise.
UniProt Q8TDD1, whole entry: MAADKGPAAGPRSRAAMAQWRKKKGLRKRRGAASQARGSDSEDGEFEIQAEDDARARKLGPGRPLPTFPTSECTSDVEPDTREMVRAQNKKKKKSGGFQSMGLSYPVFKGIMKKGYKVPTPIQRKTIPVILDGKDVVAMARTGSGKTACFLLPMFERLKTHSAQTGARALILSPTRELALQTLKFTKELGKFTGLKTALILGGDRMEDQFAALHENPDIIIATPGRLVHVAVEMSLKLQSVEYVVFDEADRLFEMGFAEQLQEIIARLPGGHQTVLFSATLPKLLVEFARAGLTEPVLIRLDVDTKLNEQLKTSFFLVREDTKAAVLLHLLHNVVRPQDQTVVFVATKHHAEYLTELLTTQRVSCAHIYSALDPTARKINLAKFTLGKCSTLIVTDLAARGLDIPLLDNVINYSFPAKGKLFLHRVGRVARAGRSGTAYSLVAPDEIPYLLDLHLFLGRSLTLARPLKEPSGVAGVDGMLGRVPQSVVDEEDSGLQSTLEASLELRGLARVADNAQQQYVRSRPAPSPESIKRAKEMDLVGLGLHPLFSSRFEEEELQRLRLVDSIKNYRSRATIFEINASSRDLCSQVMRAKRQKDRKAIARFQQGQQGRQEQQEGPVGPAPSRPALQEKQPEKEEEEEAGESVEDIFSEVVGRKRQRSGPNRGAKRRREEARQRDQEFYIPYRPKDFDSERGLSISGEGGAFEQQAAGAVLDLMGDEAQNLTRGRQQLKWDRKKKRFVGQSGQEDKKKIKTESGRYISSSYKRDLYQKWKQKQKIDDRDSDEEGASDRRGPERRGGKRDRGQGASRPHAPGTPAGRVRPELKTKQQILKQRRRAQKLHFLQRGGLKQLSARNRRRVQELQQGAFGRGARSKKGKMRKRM
UniProt Q8WYQ5: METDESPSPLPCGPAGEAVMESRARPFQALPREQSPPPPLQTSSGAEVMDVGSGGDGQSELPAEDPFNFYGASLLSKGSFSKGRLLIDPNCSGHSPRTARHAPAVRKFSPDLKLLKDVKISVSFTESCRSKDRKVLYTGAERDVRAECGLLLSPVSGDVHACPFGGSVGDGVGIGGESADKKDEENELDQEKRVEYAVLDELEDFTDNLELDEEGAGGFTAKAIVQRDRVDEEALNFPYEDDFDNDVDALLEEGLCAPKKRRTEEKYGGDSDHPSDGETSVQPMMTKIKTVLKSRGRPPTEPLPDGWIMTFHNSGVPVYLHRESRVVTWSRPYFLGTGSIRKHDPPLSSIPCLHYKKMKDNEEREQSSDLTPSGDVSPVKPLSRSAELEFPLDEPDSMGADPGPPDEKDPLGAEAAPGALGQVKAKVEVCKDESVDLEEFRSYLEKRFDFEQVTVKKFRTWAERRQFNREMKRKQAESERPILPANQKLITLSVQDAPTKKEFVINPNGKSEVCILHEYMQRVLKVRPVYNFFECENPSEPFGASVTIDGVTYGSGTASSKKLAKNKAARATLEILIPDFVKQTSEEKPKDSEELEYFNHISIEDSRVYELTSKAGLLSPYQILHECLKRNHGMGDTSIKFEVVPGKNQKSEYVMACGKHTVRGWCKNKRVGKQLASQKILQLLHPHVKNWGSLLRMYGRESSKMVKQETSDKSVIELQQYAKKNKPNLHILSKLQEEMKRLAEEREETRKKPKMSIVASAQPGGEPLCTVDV
UniProt Q9UNQ2: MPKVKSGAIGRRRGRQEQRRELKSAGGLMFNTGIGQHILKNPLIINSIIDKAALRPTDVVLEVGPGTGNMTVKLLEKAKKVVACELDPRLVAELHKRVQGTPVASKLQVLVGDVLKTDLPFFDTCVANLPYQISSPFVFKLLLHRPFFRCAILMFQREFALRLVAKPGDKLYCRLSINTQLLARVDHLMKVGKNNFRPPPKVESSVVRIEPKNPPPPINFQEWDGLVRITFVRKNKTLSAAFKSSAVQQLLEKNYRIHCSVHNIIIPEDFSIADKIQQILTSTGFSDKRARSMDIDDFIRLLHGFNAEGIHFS

This is one part of the list. For some assays here: The exact form of the protein is not confirmed.

Some test systems named below: DCPS (human); DCTN2 (human); DCTN3 (human); DCUN1D3 (human); DEFA6 (human); DEFB119 (human); DFFA (human); DFNA5 (human); DGCR6 (human); DIABLO (human); DIP (human); DKFZP564O0823 (human); DKFZp434B1231 (human); DLK2 (human).
Assay in all cases: protein microarray (ProtoArray v5.0), streptavidin-Alexa Fluor 647
Conditions in all cases: 3'-biotin; 20 mM Tris (pH 7.5), 5 mM MgCl2, 100 mM KCl, 0.1% Tween-20, A/T-rich and random oligonucleotide blockers; temperature not stated; high values mean tight binding

Assay [1] deals with DCN1-like protein 1 (human).
The next assay has as its target T1, DDX21 (UniProt Q9NR30).
T1 sequence: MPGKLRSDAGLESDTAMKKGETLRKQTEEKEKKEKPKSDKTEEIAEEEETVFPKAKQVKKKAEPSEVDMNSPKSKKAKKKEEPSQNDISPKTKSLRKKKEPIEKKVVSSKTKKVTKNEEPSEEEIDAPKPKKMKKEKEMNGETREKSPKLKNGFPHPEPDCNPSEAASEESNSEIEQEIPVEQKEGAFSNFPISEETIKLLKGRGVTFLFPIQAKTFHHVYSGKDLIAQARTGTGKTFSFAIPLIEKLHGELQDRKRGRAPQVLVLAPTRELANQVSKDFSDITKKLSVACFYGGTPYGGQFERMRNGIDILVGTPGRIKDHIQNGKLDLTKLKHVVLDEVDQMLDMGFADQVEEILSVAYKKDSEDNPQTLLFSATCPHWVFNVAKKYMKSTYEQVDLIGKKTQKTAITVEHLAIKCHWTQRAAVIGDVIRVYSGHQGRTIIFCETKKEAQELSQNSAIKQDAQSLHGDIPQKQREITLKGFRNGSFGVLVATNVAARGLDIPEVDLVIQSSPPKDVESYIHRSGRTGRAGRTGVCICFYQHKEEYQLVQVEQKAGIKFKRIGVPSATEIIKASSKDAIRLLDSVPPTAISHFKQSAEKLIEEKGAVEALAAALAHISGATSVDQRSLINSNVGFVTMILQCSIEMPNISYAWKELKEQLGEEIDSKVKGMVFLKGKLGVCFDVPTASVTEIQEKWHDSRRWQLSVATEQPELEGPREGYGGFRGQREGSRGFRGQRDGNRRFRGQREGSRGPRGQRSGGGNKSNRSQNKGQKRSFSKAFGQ

The next assay deals with DDX54 (UniProt Q8TDD1).
Another assay concerns the target T2, DDX55 (UniProt Q8NHQ9).
T2 sequence: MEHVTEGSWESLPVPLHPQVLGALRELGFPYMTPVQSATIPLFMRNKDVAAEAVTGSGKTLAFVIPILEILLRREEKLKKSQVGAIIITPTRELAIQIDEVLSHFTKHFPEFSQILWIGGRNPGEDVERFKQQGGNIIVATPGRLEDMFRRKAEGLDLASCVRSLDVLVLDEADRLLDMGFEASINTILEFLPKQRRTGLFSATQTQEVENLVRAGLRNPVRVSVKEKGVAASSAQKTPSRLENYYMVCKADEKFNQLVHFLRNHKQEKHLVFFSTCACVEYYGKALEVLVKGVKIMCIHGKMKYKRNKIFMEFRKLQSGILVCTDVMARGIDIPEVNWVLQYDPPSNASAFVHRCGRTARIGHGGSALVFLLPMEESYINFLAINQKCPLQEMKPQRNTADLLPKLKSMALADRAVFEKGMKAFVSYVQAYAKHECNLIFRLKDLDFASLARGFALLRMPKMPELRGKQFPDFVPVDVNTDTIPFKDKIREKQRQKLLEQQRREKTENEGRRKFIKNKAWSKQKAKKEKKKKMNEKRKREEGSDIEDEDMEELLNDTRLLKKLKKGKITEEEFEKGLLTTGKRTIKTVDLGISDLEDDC

Another assay concerns the target DGCR8 (UniProt Q8WYQ5).
A further assay concerns the target DIMT1L (UniProt Q9UNQ2).

With “GGGGACAGGGGTATGGGGAGGGG [G4-3 biotinylated (CtG)]”, the binding signal in assay [1] was -0.325 z-score; in the assay with DCPS (human), -0.315 z-score; in the assay on DCTN2 (human), -0.331 z-score; in the assay with DCTN3 (human), -0.326 z-score; in the assay with DCUN1D3 (human), -0.342 z-score; with DDX21 it was 4.37 z-score. Further, the binding signal is 4.65 z-score in the assay with DDX54; 4.24 z-score in the assay with DDX55; -0.328 z-score in the assay with DEFA6 (human); -0.313 z-score in the assay on DEFB119 (human); -0.342 z-score in the assay on DFFA (human); -0.334 z-score with DFNA5 (human). The binding signal was -0.338 z-score in the assay on DGCR6 (human); 3.39 z-score in the assay with DGCR8; -0.339 z-score in the assay with DIABLO (human); 8.31 z-score with DIMT1L; -0.291 z-score in the assay on DIP (human); -0.324 z-score with DKFZP564O0823 (human). For the same sequence, the binding signal in the assay on DKFZp434B1231 (human) was -0.325 z-score; in the assay on DLK2 (human), -0.308 z-score.
